This is an account of results in patent US20260104418A1.

Protein sequences, listed by entry. Tags and fused reporters are not part of them. Lines headed by an entry give the natural chain unless they say otherwise; changes in a name come on top.
UniProt P08637: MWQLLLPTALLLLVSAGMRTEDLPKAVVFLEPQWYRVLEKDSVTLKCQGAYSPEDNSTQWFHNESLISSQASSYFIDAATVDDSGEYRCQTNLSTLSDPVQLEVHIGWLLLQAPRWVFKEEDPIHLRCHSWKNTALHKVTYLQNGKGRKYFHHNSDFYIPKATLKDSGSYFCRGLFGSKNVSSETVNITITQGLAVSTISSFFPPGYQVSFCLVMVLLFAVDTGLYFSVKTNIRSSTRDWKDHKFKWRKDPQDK

The target of this experiment is CD16A (UniProt P08637). Description: flow cytometry, anti-His AF647 detection, Jurkat-Lucia-NFAT-CD16A cells. On the technique in general: Flow cytometry measures light scatter and fluorescence of single cells or particles in a stream.

Results are given in words; binding and its absence hold for the method and conditions named. Binding can be weak; no strength is given. Tags and fused reporters may be left off the sequences shown.

B1: 02-0358-h3-CD16A-His (CLDN18.2-CD16A TandAb) (bispecific antibody)
chain: QVQLVQSGAEVKKPGESLKVSCKASGYTFTSYYMHWVRQAPGQGLEWMGIINPSGGSTSYAQKFQGRVTMTRDTSTSTVYMELSSLRSEDTAVYYCARGSAYYYDFADYWGQGTLVTVSSGGSGGSGGSDIVMTQSPDSLAVSLGERVTMNCKSSQSLFNSGNQRNYLTWYQQKPGQPPKLLIYWASTRESGVPDRFSGSGSGTDFTLTISSVQAEDVAVYYCQNVYIYPLTFGQGTKLEIKGGSGGSGGSEVQLVESGGGLVQPGGSLRLSCAVSGFTFSSFGMHWVRQAPGKGLEWVAYISSGTTNIYYADSVKGRFTVSRDNAKNSLYLQMNSLRAEDTAVYYCVRSGYYGNSLDYWGQGTLVTVSSGGSGGSGGSSYVLTQPSSVSVAPGQTATISCGGHNIGSKNVHWYQQRPGQSPVLVIYQDNKRPSGIPERFSGSNSGNTATLTISGTQAMDEADYYCQVWDNYSVLFGGGTKLTVLHHHHHH
As to B1, the binding result was “binds”.

B2: 02-0307-h4-CD16A_His (CLDN18.2-CD16A TandAb) (bispecific antibody)
chain: QVQLVQSGAEVKKPGESLKVSCKASGYTFTSYYMHWVRQAPGQGLEWMGIINPSGGSTSYAQKFQGRVTMTRDTSTSTVYMELSSLRSEDTAVYYCARGSAYYYDFADYWGQGTLVTVSSGGSGGSGGSDIVMTQSPDSLAVSLGERVTMNCKSSQSLLNSGNQKNYLSWYQQKPGQPPKLLFYWASTRESGVPDRFSGSGSGTDFTLTISSVQAEDVAVYYCQNDYSYPFTFGQGTKLEIKGGSGGSGGSEVQLLESGGGLVQPGGSLRLSCAASGFTFSSYTMSWVRQAPGKGLEWVATIIIGGSYTYYADSVKGRFTISRDNSKNTLYLQMNSLRAEDTAVYYCTRLVKGNAMDYWGQGTLVTVSSGGSGGSGGSSYVLTQPSSVSVAPGQTATISCGGHNIGSKNVHWYQQRPGQSPVLVIYQDNKRPSGIPERFSGSNSGNTATLTISGTQAMDEADYYCQVWDNYSVLFGGGTKLTVLHHHHHH
For the molecule B2, the binding result is reported as “binds”.
